The list shows a part of the results. Only hits are listed; about a third recur on repeated control peptides.
What was measured:
Assay in all cases: PRISMA enrichment of interactor (LFQ) in peptide spot vs all other peptide spots (log2 fold change); higher = stronger / more specific binding of the interactor to the peptide
AAMDC, Q9H7C9 = target: AAMDC, Q9H7C9
Experimental: (§1)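 PRISMA: 15-aa overlapping tiles (offset 8 aa) of 60 microproteins, plus SOS1/GLUT1 control peptides, were spot-synthesized on cellulose membranes in triplicate. Membranes were incubated with benzonase-treated HEK293T lysate, and bound proteins were identified by LC-MS/MS with LFQ. Enrichment is the log2 fold change of each protein in one spot versus all other spots. Only interactors passing the significance cutoff are listed.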

Protein sequences, listed by entry. Tags and fused reporters are not part of them.
GSPT2, Q8IYD1, UniProt Q8IYD1, whole entry: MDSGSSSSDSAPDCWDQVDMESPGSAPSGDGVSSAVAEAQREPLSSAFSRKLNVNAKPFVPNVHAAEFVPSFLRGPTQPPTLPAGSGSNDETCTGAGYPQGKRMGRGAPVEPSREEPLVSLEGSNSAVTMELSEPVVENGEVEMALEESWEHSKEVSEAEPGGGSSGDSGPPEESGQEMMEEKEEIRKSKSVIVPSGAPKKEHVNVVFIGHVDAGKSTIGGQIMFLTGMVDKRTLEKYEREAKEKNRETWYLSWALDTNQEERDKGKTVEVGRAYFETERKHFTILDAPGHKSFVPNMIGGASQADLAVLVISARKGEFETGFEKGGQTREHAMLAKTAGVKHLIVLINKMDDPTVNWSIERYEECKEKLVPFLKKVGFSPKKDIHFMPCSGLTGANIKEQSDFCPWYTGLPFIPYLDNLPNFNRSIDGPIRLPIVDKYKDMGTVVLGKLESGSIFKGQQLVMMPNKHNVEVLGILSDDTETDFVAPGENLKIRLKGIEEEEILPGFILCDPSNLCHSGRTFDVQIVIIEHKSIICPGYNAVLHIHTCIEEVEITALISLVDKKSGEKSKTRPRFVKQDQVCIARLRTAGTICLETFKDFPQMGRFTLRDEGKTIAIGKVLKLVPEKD

AK4, P27144 = target: AK4, P27144
Experimental: as §1

CIZ1, Q9ULV3 = target: CIZ1, Q9ULV3
Experimental: as §1

CNOT3, O75175 = target: CNOT3, O75175
Experimental: as §1

DCAF13, Q9NV06 = target: DCAF13, Q9NV06
Experimental: as §1

DCTN2, Q13561 = target: DCTN2, Q13561
Experimental: as §1

DDX49, Q9Y6V7 = target: DDX49, Q9Y6V7
Experimental: as §1

GEMIN2, O14893 = target: GEMIN2, O14893
Experimental: as §1

PACSIN2, Q9UNF0 = target: PACSIN2, Q9UNF0
Experimental: as §1

RBM25, P49756 = target: RBM25, P49756
Experimental: as §1

RFC2, P35250 = target: RFC2, P35250
Experimental: as §1

SAAL1, Q96ER3 = target: SAAL1, Q96ER3
Experimental: as §1

SDAD1, Q9NVU7 = target: SDAD1, Q9NVU7
Experimental: as §1

SEPTIN7, Q16181 = target: SEPTIN7, Q16181
Experimental: as §1

C11orf58, O00193 = target: C11orf58, O00193
Experimental: as §1

DBNL, Q9UJU6 = target: DBNL, Q9UJU6
Experimental: as §1

EP300, Q09472 = target: EP300, Q09472
Experimental: as §1

GSPT2, Q8IYD1 = target: GSPT2, Q8IYD1
Experimental: as §1

IST1, P53990 = target: IST1, P53990
Experimental: as §1

MRPS15, P82914 = target: MRPS15, P82914
Experimental: as §1

MYO6, Q9UM54 = target: MYO6, Q9UM54
Experimental: as §1

PARK7, Q99497 = target: PARK7, Q99497
Experimental: as §1

PJA2, O43164 = target: PJA2, O43164
Experimental: as §1

PPIL1, Q9Y3C6 = target: PPIL1, Q9Y3C6
Experimental: as §1

PRKAA2, P54646 = target: PRKAA2, P54646
Experimental: as §1

RBM38, Q9H0Z9 = target: RBM38, Q9H0Z9
Experimental: as §1

SASS6, Q6UVJ0 = target: SASS6, Q6UVJ0
Experimental: as §1

SF3B4, Q15427 = target: SF3B4, Q15427
Experimental: as §1

STAT3, P40763 = target: STAT3, P40763
Experimental: as §1

ZC2HC1A, Q96GY0 = target: ZC2HC1A, Q96GY0
Experimental: as §1

Binder	PRISMA enrichment of interactor (log2) (AAMDC, Q9H7C9)	PRISMA enrichment of interactor (log2) (AK4, P27144)	PRISMA enrichment of interactor (log2) (CIZ1, Q9ULV3)	PRISMA enrichment of interactor (log2) (CNOT3, O75175)	PRISMA enrichment of interactor (log2) (DCAF13, Q9NV06)	PRISMA enrichment of interactor (log2) (DCTN2, Q13561)	PRISMA enrichment of interactor (log2) (DDX49, Q9Y6V7)	PRISMA enrichment of interactor (log2) (GEMIN2, O14893)	PRISMA enrichment of interactor (log2) (PACSIN2, Q9UNF0)	PRISMA enrichment of interactor (log2) (RBM25, P49756)	PRISMA enrichment of interactor (log2) (RFC2, P35250)	PRISMA enrichment of interactor (log2) (SAAL1, Q96ER3)	PRISMA enrichment of interactor (log2) (SDAD1, Q9NVU7)	PRISMA enrichment of interactor (log2) (SEPTIN7, Q16181)	PRISMA enrichment of interactor (log2) (C11orf58, O00193)	PRISMA enrichment of interactor (log2) (DBNL, Q9UJU6)	PRISMA enrichment of interactor (log2) (EP300, Q09472)	PRISMA enrichment of interactor (log2) (GSPT2, Q8IYD1)	PRISMA enrichment of interactor (log2) (IST1, P53990)	PRISMA enrichment of interactor (log2) (MRPS15, P82914)	PRISMA enrichment of interactor (log2) (MYO6, Q9UM54)	PRISMA enrichment of interactor (log2) (PARK7, Q99497)	PRISMA enrichment of interactor (log2) (PJA2, O43164)	PRISMA enrichment of interactor (log2) (PPIL1, Q9Y3C6)	PRISMA enrichment of interactor (log2) (PRKAA2, P54646)	PRISMA enrichment of interactor (log2) (RBM38, Q9H0Z9)	PRISMA enrichment of interactor (log2) (SASS6, Q6UVJ0)	PRISMA enrichment of interactor (log2) (SF3B4, Q15427)	PRISMA enrichment of interactor (log2) (STAT3, P40763)	PRISMA enrichment of interactor (log2) (ZC2HC1A, Q96GY0)
QGTTCEMKDLRCCIG [LINC00881]	4	4.78	5.82	4.75	3.94	4.7	5.64	5.35	5.17	5.38	4.77	4.69	5.25	4.44	–	–	–	–	–	–	–	–	–	–	–	–	–	–	–	–
FLAERMLAVPVTCGD [PVT1]	4.94	–	–	–	–	–	–	–	–	–	–	–	–	–	5.79	4.43	6.74	4.82	4.93	6.72	4.46	7.34	4.87	4.97	13	6.5	5.79	5.86	4.72	6.3
